From patent US20210393690A1
Results are given in words; binding and its absence hold for the method and conditions named. Some results given as binding are weak or reduced against the parent protein; the word gives no strength.

Amino acid sequences for entries named in this document (tags omitted). Residues count along the entry.
UniProt Q02223, residues 1-54: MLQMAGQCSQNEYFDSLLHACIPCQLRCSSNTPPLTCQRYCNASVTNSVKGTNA

Target: recombinant human BCMA-hFc (soluble human BCMA fused at its C-terminus to an Fc region of IgG) (human) (UniProt Q02223)
Experiment: flow cytometry of transduced primary CD4 and CD8 T cells stained with recombinant BCMA-Fc (rBCMA, y axis) and for the surrogate marker (x axis)

binding: binds
B1: BCMA-25-LS-O/SSE CAR (protein)
chain: EVQLVQSGGGLVQPGRSLRLSCTASGFTFGDYAMSWFRQAPGKGLEWVGFIRSKAYGGTTEYAASVKGRFTISRDDSKSIAYLQMNSLKTEDTAVYYCAAWSAPTDYWGQGTLVTVSSGGGGSGGGGSGGGGSDIQMTQSPAFLSASVGDRVTVTCRASQGISNYLAWYQQKPGNAPRLLIYSASTLQSGVPSRFRGTGYGTEFSLTIDSLQPEDFATYYCQQSYTSRQTFGPGTRLDIKESKYGPPCPPCPAPPVAGPSVFLFPPKPKDTLMISRTPEVTCVVVDVSQEDPEVQFNWYVDGVEVHNAKTKPREEQFQSTYRVVSVLTVLHQDWLNGKEYKCKVSNKGLPSSIEKTISKAKGQPREPQVYTLPPSQEEMTKNQVSLTCLVKGFYPSDIAVEWESNGQPENNYKTTPPVLDSDGSFFLYSRLTVDKSRWQEGNVFSCSVMHEALHNHYTQKSLSLSLGKMFWVLVVVGGVLACYSLLVTVAFIIFWVKRGRKKLLYIFKQPFMRPVQTTQEEDGCSCRFPEEEEGGCELRVKFSRSADAPAYQQGQNQLYNELNLGRREEYDVLDKRRGRDPEMGGKPRRKNPQEGLYNELQKDKMAEAYSEIGMKGERRRGKGHDGLYQGLSTATKDTYDALHMQALPPR
